# Measurements reported in the supplement of paper PMC8090911.
# Where a name gives a salt, the structure may show the parent alone. The list shows a part of the results. Many values rest on one well or one pass, so single values are uncertain.
# System: p95-ErbB2-MCF7
# Test: perinuclear lysosome accumulation (PNLA, size of LAMP2 puncta), robust Z-score vs plate median; higher = more perinuclear lysosome accumulation (reversal of invasive lysosome distribution)
# Conditions: 5 µM; 24 h
row,Compound,perinuclear lysosome accumulation
1,O=C(c1ccccc1)c1ccc2n1CCC2C(=O)O (stereo not drawn) [Ketorolac tromethamine],-0.554
2,COc1c(N2CCNC(C)C2)c(F)cc2c(=O)c(C(=O)O)cn(C3CC3)c12 (stereo not drawn) [Gatifloxacin],-3.04
3,CC(C(=O)O)c1ccc(C(=O)c2ccccc2)s1 (stereo not drawn) [Tiaprofenic acid],1.41
4,CC(=O)N(CC(O)CN(C(C)=O)c1c(I)c(C(=O)NCC(O)CO)c(I)c(C(=O)NCC(O)CO)c1I)c1c(I)c(C(=O)NCC(O)CO)c(I)c(C(=O)NCC(O)CO)c1I (stereo not drawn) [Iodixanol],-0.376
5,c1ccc(CN(CC2=NCCN2)c2ccccc2)cc1 [Antazoline hydrochloride],-1.03
6,CN(C)CC/C=C1/c2ccccc2COc2ccc(CC(=O)O)cc21 [Olopatadine hydrochloride],0.718
7,C=CCSCC1Nc2cc(Cl)c(S(N)(=O)=O)cc2S(=O)(=O)N1 (stereo not drawn) [Althiazide],1.55
8,CCCOc1ccc(C(=O)OCCN(CC)CC)cc1N [Proparacaine hydrochloride],1.48
9,CC(=O)OCC(=O)[C@@]1(OC(C)=O)[C@@H](C)C[C@H]2[C@@H]3C[C@H](F)C4=CC(=O)C=C[C@]4(C)[C@@]3(F)[C@@H](O)C[C@@]21C [Diflorasone Diacetate],-1.24
10,C[C@]1(Cn2ccnn2)[C@H](C(=O)O)N2C(=O)C[C@H]2S1(=O)=O [Tazobactam],-0.297
11,CC(CN(C)C)C(C)(O)Cc1ccc(Cl)cc1 (stereo not drawn) [Clobutinol hydrochloride],-1.44
12,CC[C@@H](CO)NCCN[C@@H](CC)CO [Ethambutol dihydrochloride],-0.0111
13,C=CCOC(Cn1ccnc1)c1ccc(Cl)cc1Cl (stereo not drawn) [Enilconazole],-1.2
14,CC1(C)[C@@H](OC(=O)CCC(=O)O)CC[C@]2(C)[C@H]3C(=O)C=C4[C@@H]5C[C@@](C)(C(=O)O)CC[C@]5(C)CC[C@@]4(C)[C@]3(C)CC[C@@H]12 [Carbenoxolone disodium salt],1.29
15,CC(CN(C)C)CN1c2ccccc2Sc2ccccc21 (stereo not drawn) [Trimeprazine tartrate],2.69
16,C#C[C@]1(O)CC[C@H]2[C@@H]3CCC4=CC(=O)CC[C@@H]4[C@H]3CC[C@@]21CC [Norgestrel-(-)-D],-0.538
17,N=C(N)NCCN1CCCCCCC1 [Guanethidine sulfate],0.948
18,CN(C)[C@@H]1C(O)=C(C(N)=O)C(=O)[C@@]2(O)C(O)=C3C(=O)c4c(O)cccc4[C@@](C)(O)[C@H]3[C@H](O)[C@@H]12 [Oxytetracycline dihydrate],0.913
19,CSc1ccc2c(c1)N(CCC1CCCCN1C)c1ccccc1S2 (stereo not drawn) [Thioridazine hydrochloride],5.71
20,CC1=C(/C=C/C(C)=C/C=C/C(C)=C\C(=O)O)C(C)(C)CCC1 [Isotretinoin],-0.998
21,CC/C(=C(/CC)c1ccc(O)cc1)c1ccc(O)cc1 [Diethylstilbestrol],0.824
22,Cc1cc(-c2ccccc2)nnc1NCCN1CCOCC1 [Minaprine dihydrochloride],-1.77
23,NC(N)=Nc1nc(CSCC/C(N)=N/S(N)(=O)=O)cs1 [Famotidine],1.18
24,COc1cc(-c2ccc(=O)[nH]n2)ccc1OC(F)F [Zardaverine],-0.398

# As a working copy, part of the list above:
row,Compound,perinuclear lysosome accumulation
17,N=C(N)NCCN1CCCCCCC1 [Guanethidine sulfate],0.948
18,CN(C)[C@@H]1C(O)=C(C(N)=O)C(=O)[C@@]2(O)C(O)=C3C(=O)c4c(O)cccc4[C@@](C)(O)[C@H]3[C@H](O)[C@@H]12 [Oxytetracycline dihydrate],0.913
19,CSc1ccc2c(c1)N(CCC1CCCCN1C)c1ccccc1S2 (stereo not drawn) [Thioridazine hydrochloride],5.71

# Additional entries follow:

row,Compound,perinuclear lysosome accumulation
1,COc1cc(NC(C)CCCN)c2ncccc2c1 (stereo not drawn) [Primaquine diphosphate],1.91
2,CCCCC1(COC(=O)CCC(=O)O)C(=O)N(c2ccccc2)N(c2ccccc2)C1=O [Suxibuzone],-0.272
3,CCCCNc1c(C(=O)OCC)c(C)nc2c1cnn2CC [Tracazolate hydrochloride],0.315
4,C[C@]12CC[C@@H]3c4ccc(OS(=O)(=O)O)cc4CC[C@H]3[C@@H]1CCC2=O [Estropipate],-1.34
5,Cc1ccc(S(=O)(=O)NC(=O)NN2CCCCCC2)cc1 [Tolazamide],-1.21
6,OC(CCCN1CCCCC1)(c1ccccc1)c1ccccc1 [Diphenidol hydrochloride],1.48
7,CCN(CC)CCOC(=O)C(c1ccccc1)c1ccccc1 [Adiphenine hydrochloride],-4.57
8,CCOC(=O)c1ccc(N)cc1 [Benzocaine],-0.798
9,CNC(C)CCC=C(C)C (stereo not drawn) [Isometheptene mucate],-1.14
10,O=C(COc1ccc(Cl)cc1)N1CCN(Cc2ccc3c(c2)OCO3)CC1 [Fipexide hydrochloride],-0.812
11,CN(Cc1cnc2nc(N)nc(N)c2n1)c1ccc(C(=O)N[C@@H](CCC(=O)O)C(=O)O)cc1 [Methotrexate],2.77
12,"CN(Cc1cnc2nc(N)nc(N)c2n1)c1ccc(C(=O)N[C@@H](CCC(=O)O)C(=O)O)cc1 (racemic) [Amethopterin (R,S)]",1.25
13,CCN(CC)CCNc1ccc(CO)c2sc3ccccc3c(=O)c12 [Hycanthone],1.91
14,CN(C)c1ccc(O)c2c1C[C@H]1C[C@H]3[C@H](N(C)C)C(O)=C(C(N)=O)C(=O)[C@@]3(O)C(O)=C1C2=O [Minocycline hydrochloride],2.22
15,Cc1ccsc1/C=C/C1=NCCCN1C [Morantel tartrate],-1.6
16,CN(C)CCCN1c2ccccc2Sc2ccc(Cl)cc21 [Chlorpromazine hydrochloride],2.54
17,CCOc1ccccc1OC(c1ccccc1)C1CNCCO1 (stereo not drawn) [Reboxetine mesylate],-0.823
18,Nc1ccc(S(=O)(=O)Nc2ccccn2)cc1 [Sulfapyridine],-0.743
19,Nc1ccn([C@@H]2O[C@H](CO)[C@@H](O)[C@@H]2O)c(=O)n1 [Cytarabine],0.916
20,CC(COc1ccccc1)NC(C)C(O)c1ccc(O)cc1 (stereo not drawn) [Isoxsuprine hydrochloride],0.298
21,CCOC(=O)NNc1nncc2ccccc12 [Todralazine hydrochloride],0.5
22,CCCCN1CCCCC1C(=O)Nc1c(C)cccc1C (stereo not drawn) [Bupivacaine hydrochloride],1.27
23,CC(=O)[C@H]1CC[C@H]2[C@@H]3CC=C4C[C@@H](O)CC[C@]4(C)[C@H]3CC[C@]12C [Pregnenolone],3.62
24,COc1ccc(CC2c3cc(OC)c(OC)cc3CC[N+]2(C)CCC(=O)OCCCCCOC(=O)CC[N+]2(C)CCc3cc(OC)c(OC)cc3C2Cc2ccc(OC)c(OC)c2)cc1OC (stereo not drawn) [Atracurium besylate],-1.3
